Assay results taken from the supplement of paper PMC10849652.
Some of the results follow.

Chains of the proteins cited; added tags and fusions are not shown. Lines headed by an entry give the natural chain unless they say otherwise; changes in a name come on top.
UniProt Q99714: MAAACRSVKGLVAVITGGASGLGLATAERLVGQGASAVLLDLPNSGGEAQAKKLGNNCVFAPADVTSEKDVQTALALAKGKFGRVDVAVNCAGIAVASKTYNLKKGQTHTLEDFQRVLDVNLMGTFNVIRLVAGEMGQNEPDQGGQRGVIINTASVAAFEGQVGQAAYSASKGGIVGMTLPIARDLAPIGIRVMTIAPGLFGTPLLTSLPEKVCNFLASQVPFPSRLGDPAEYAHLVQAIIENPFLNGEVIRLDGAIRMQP
UniProt Q8TCT9: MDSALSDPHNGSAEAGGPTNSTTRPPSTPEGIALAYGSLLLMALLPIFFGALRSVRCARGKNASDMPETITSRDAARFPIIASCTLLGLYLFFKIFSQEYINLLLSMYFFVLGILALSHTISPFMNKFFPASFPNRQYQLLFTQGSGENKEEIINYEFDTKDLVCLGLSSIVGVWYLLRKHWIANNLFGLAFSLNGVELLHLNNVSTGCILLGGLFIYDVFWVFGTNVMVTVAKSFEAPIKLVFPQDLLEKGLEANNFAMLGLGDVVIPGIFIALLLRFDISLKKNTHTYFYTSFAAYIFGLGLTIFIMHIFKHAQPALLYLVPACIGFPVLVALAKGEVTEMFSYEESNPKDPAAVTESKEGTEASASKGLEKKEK
UniProt O14979: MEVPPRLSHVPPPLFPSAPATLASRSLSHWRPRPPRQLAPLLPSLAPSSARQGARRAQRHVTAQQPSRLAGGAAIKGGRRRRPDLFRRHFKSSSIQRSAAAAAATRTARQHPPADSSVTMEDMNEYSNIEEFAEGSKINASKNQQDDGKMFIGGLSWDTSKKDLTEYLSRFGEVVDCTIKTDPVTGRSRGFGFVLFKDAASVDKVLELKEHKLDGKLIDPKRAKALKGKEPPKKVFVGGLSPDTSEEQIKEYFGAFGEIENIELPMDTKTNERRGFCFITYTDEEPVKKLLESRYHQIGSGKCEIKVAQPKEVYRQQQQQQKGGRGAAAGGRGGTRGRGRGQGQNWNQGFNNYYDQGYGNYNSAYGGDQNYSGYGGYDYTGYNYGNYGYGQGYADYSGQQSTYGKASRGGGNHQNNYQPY
UniProt Q58FF6, whole entry, looked up: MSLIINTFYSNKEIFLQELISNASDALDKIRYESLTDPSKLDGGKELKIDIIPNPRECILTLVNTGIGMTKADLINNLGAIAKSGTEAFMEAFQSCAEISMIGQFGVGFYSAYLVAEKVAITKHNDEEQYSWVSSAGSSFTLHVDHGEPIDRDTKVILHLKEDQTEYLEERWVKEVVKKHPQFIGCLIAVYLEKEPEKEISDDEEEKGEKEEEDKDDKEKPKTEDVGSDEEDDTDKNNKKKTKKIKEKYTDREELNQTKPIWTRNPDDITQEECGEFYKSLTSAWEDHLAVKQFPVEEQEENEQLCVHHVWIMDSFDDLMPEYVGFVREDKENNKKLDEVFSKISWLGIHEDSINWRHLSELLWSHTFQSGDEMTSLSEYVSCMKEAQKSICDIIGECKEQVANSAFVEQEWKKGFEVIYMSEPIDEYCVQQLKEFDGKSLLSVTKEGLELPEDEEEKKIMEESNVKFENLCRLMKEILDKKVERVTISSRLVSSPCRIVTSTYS
UniProt Q9NZL4: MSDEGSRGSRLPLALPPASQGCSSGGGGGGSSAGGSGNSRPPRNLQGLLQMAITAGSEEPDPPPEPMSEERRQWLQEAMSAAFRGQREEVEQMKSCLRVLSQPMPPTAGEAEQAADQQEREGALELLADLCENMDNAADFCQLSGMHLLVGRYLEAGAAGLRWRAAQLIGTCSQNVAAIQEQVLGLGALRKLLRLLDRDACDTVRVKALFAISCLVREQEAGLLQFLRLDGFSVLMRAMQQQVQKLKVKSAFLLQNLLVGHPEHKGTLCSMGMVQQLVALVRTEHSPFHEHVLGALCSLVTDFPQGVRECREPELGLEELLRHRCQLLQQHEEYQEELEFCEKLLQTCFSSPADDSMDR
UniProt Q8NBQ5: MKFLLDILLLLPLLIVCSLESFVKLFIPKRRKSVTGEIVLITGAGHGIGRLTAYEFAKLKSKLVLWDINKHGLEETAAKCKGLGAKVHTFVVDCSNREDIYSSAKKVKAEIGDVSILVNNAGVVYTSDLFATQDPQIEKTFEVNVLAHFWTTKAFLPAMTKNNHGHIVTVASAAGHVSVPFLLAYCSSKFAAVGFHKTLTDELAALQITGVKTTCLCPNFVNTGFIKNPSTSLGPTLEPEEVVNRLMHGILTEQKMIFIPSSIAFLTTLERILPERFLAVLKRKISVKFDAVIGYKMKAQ
UniProt Q99729: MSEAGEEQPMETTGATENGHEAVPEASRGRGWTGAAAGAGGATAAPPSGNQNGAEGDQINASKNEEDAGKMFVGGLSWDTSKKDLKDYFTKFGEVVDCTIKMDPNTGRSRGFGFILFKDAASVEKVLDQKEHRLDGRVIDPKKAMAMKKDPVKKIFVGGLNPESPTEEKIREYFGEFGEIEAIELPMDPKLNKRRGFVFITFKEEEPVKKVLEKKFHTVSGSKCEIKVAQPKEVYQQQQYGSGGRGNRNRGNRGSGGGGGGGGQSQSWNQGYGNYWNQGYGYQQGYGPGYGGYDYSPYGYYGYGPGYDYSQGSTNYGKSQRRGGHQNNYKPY
UniProt Q58FG1, whole entry, looked up: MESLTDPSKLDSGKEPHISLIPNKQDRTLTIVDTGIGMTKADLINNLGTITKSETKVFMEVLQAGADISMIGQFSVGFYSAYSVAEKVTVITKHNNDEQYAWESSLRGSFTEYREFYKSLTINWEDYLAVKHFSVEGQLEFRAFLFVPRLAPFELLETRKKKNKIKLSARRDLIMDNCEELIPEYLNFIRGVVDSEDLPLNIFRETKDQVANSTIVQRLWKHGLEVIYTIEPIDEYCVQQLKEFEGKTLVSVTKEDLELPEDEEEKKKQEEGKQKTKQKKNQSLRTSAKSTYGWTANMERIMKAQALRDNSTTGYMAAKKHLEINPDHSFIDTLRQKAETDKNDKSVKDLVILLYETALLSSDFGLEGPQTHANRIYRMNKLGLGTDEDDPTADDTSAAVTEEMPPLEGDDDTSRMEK
UniProt Q9P2D0: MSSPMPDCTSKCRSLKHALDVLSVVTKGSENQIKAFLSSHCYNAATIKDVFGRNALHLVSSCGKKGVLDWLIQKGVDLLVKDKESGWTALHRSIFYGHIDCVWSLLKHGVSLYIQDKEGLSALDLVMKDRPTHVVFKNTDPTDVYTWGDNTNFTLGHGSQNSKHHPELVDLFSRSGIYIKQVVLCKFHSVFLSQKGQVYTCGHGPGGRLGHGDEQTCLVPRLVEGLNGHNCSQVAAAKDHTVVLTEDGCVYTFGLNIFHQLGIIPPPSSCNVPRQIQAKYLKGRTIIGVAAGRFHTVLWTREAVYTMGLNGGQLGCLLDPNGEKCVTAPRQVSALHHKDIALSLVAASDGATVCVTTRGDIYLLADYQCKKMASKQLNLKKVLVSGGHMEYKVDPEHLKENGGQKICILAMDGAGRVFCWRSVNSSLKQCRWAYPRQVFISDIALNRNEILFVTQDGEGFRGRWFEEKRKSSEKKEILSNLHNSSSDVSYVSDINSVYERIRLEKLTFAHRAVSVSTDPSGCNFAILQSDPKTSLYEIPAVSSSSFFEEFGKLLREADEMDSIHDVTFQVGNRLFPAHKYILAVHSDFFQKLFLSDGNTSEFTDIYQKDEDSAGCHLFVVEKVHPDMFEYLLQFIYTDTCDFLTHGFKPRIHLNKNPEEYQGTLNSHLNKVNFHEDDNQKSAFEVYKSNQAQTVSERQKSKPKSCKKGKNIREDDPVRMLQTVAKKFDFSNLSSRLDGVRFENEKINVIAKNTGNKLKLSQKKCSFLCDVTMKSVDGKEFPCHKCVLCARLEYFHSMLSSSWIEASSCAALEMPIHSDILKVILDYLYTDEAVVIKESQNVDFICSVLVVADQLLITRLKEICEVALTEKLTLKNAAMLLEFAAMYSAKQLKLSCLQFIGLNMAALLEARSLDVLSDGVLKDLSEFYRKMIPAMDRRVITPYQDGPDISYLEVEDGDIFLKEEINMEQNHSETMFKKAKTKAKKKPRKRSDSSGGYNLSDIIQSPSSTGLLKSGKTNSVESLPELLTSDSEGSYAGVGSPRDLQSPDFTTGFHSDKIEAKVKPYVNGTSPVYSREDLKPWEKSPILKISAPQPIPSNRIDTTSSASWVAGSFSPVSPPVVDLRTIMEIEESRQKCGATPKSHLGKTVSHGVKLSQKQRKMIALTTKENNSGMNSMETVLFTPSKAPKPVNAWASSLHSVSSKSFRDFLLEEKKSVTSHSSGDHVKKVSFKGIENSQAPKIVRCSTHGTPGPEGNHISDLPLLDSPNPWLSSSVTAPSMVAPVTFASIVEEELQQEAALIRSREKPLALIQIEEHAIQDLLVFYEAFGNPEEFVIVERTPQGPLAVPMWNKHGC
UniProt Q14773: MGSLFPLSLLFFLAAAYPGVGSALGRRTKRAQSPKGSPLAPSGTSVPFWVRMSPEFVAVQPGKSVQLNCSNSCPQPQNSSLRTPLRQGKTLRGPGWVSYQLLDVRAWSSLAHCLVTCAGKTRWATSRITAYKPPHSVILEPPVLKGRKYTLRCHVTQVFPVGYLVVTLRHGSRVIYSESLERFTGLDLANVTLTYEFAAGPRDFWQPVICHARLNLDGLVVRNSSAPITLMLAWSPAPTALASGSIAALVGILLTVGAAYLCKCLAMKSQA
UniProt P31942: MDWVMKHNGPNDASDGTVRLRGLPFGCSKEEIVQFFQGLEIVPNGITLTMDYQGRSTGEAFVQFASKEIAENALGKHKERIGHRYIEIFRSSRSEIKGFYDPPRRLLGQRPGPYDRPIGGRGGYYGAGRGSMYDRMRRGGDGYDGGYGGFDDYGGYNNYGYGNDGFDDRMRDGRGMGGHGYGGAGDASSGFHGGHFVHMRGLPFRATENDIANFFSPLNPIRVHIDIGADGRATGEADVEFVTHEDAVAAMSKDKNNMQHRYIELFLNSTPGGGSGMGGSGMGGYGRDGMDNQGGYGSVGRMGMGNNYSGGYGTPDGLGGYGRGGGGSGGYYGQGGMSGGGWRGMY
UniProt P09651: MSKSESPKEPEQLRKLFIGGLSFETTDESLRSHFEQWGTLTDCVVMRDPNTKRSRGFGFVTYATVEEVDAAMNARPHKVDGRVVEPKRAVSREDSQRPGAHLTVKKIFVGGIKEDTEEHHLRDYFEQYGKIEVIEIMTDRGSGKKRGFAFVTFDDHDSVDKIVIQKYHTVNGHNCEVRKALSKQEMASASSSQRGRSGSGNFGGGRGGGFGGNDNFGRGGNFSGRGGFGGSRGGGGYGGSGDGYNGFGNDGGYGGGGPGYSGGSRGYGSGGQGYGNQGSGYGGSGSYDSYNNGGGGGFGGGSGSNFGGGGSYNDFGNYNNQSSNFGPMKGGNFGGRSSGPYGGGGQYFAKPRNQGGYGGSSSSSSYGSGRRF
UniProt P38646: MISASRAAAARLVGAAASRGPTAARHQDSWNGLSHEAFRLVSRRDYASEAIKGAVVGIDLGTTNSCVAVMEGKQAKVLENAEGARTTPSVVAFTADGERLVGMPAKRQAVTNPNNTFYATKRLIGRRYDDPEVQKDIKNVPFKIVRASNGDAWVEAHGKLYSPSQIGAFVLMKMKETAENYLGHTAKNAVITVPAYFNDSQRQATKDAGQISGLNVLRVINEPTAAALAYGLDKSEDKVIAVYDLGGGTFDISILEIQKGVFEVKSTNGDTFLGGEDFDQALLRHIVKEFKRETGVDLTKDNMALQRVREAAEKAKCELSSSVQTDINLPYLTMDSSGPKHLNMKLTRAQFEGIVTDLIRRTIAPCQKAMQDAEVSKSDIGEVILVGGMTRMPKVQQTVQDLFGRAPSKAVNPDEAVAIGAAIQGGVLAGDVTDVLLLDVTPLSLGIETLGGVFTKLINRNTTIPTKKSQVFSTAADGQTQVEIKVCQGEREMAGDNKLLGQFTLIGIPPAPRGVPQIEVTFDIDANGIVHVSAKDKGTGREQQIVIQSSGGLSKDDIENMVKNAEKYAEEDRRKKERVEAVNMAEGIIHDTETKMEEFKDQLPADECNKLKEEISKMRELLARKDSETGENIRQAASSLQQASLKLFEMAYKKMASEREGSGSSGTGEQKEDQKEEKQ
UniProt Q8WVV9: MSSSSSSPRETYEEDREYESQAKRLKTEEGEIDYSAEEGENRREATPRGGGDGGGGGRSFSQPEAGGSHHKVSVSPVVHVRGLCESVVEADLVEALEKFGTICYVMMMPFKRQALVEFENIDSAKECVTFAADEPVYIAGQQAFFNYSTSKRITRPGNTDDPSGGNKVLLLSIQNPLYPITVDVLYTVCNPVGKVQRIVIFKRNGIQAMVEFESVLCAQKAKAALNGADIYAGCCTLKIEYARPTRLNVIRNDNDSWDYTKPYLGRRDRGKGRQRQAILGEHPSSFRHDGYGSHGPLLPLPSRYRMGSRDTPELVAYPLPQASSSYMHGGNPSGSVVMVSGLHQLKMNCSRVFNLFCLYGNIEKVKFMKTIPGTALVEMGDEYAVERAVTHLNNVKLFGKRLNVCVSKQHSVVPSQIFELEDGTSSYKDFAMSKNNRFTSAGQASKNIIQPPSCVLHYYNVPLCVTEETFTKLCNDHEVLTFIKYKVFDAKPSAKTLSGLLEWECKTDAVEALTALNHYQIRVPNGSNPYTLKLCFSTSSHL

Each target was assayed with c1cn2cc(-c3ccc4cn[nH]c4c3)nc(Nc3ccc(N4CCOCC4)cc3)c2n1 [entospletinib] (assay: log2 fold change, soluble protein after heating vs DMSO (PISA); higher = thermal stabilisation; K562 cells, 10 uM, 30 min; active = over 0.2 and 3.5 SD of the protein, either way, in both replicates (recomputed)).
How it was run: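 K562 cells at 2×10^6 cells/mL were treated for 30 min with 10 μM compound, and aliquots were heated for 3 min over 48°C-58°C before pooling. Extraction used PBS with 0.5% NP-40 at 4°C, and soluble protein was the supernatant after 21,000xg for 90 min, measured by TMTpro 16plex LC-MS/MS with channel sums equalised. Thermal stability values, relative to control samples and from duplicates, are log2 fold changes.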

log2 fold change, inactive:
HSD17B10 (UniProt Q99714) -0.105
HSPG2 (UniProt P98160) 0.007
HM13 (UniProt Q8TCT9) -0.015
HOXD9 (UniProt P28356) -0.189
HNRNPDL (UniProt O14979) 0.102
HOOK2 (UniProt Q96ED9) -0.123
HSP90AB4P (UniProt Q58FF6) -0.237
HSPBP1 isoform 3 (UniProt Q9NZL4) 0.003
HNRNPA3 (UniProt P51991) 0.004
HSD17B11 (UniProt Q8NBQ5) -0.061
HYPK (UniProt Q9NX55) 0.015
HNRNPAB isoform 3 (UniProt Q99729) 0.07
HUWE1, A0A087X1S3 0.101
HSP90AA4P (UniProt Q58FG1) 0.143
IBTK (UniProt Q9P2D0) 0.042
HINT2 (UniProt Q9BX68) 0.08
HSPA4 (UniProt P34932) -0.026
ICAM4 (UniProt Q14773) -0.057
HNRNPH3 (UniProt P31942) -0.02
HNRNPA1 (UniProt P09651) 0.046
HSPA9 (UniProt P38646) -0.02
HSPA13 (UniProt P48723) 0.031
HNRNPLL (UniProt Q8WVV9) 0.083

Looked up one by one from the list above (two):
log2 fold change, inactive:
HYPK (UniProt Q9NX55) 0.015
HSP90AA4P (UniProt Q58FG1) 0.143
